Test results published in the supplement of paper PMC12823440, “Inhibitors supercharge kinase turnover through native proteolytic circuits” (Nature, 2025).
Some of the results follow. Hit calls seldom repeat between salt and free forms of one compound.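 Kinases were expressed as nanoluciferase fusions in K562 cells and luminescence was read every 4 h between 2 and 18 h as percent of control, DMSO set to 100% and a positive control to 0%. A time point counts as decreased when the signal drops significantly (2 sigma). The hit call is the authors' own, does not follow from the count of time points alone, and its rule is not shown.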

Sequences of proteins named here, by UniProt entry; tags and fusion partners are left off. A change or cut given only in a name is not applied to a line headed by its entry.
UniProt P07949, whole entry, looked up: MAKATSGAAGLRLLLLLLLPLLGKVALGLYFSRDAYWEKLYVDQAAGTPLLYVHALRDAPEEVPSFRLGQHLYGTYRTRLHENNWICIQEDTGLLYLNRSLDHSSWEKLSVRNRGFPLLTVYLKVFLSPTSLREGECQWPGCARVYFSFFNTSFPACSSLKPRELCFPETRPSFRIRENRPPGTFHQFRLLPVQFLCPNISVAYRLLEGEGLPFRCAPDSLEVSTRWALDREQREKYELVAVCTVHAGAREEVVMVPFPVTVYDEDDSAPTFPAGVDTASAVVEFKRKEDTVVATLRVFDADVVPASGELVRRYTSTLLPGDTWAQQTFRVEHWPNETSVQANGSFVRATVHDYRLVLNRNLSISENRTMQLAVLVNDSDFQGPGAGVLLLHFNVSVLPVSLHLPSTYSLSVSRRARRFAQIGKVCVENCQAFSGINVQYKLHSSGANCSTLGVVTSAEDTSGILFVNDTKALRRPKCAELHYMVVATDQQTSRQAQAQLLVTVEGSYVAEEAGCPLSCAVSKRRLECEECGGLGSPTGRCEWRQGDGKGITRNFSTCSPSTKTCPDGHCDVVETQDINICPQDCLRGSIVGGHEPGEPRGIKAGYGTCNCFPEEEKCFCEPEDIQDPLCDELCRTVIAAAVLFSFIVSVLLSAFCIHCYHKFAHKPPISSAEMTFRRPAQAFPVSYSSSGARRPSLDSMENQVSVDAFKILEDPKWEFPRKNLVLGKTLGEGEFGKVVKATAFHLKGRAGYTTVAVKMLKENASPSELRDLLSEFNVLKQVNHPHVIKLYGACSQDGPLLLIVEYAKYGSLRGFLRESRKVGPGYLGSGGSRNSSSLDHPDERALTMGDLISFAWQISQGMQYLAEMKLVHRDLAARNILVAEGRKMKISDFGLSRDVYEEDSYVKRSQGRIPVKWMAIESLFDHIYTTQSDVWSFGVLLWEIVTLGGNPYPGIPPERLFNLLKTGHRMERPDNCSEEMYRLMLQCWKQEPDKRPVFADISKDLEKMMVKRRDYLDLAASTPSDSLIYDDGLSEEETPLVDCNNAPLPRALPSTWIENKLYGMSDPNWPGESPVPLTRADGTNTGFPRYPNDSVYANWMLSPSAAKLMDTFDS
UniProt P07949, whole entry M918T, looked up: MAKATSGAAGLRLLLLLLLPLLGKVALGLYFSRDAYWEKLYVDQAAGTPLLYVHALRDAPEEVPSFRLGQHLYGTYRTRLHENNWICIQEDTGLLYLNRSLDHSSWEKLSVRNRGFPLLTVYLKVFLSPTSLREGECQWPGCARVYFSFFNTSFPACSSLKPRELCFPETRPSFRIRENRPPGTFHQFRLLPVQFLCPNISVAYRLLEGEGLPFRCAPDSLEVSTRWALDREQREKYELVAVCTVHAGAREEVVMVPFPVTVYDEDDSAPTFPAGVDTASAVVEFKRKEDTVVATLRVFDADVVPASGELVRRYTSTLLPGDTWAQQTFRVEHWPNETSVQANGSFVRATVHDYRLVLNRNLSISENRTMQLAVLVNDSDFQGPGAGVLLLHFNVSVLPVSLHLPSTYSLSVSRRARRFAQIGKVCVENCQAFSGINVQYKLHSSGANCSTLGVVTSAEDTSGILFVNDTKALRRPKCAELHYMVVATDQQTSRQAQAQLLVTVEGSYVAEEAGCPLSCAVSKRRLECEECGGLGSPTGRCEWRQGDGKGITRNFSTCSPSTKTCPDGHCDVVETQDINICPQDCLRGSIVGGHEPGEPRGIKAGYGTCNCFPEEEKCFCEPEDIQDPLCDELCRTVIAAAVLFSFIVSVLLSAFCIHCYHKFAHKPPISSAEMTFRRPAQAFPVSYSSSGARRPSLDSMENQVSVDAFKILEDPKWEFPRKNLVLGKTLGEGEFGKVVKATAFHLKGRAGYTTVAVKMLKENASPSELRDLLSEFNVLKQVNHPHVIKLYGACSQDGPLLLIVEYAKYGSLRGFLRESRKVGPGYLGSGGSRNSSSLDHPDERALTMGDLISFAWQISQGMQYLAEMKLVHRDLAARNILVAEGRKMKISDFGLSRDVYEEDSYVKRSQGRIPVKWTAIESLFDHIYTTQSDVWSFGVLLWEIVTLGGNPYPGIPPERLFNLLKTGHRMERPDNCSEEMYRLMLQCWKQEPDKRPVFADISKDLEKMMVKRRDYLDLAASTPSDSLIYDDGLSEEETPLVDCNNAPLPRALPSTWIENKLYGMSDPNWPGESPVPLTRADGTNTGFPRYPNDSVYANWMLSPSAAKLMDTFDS
UniProt Q9BRS2: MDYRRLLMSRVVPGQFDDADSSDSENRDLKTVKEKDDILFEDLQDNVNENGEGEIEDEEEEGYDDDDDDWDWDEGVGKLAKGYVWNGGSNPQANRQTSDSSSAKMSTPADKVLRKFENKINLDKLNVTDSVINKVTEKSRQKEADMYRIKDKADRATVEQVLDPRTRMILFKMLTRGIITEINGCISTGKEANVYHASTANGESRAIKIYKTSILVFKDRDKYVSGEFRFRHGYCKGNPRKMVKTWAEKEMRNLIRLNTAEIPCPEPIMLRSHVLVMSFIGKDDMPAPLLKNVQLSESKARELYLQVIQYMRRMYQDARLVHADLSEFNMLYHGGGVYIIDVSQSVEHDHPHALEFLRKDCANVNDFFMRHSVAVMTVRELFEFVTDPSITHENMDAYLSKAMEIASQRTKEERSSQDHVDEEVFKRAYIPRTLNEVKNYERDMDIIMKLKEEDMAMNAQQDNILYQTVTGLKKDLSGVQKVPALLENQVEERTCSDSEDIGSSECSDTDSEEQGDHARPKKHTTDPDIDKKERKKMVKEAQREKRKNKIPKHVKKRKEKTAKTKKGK
UniProt Q13546: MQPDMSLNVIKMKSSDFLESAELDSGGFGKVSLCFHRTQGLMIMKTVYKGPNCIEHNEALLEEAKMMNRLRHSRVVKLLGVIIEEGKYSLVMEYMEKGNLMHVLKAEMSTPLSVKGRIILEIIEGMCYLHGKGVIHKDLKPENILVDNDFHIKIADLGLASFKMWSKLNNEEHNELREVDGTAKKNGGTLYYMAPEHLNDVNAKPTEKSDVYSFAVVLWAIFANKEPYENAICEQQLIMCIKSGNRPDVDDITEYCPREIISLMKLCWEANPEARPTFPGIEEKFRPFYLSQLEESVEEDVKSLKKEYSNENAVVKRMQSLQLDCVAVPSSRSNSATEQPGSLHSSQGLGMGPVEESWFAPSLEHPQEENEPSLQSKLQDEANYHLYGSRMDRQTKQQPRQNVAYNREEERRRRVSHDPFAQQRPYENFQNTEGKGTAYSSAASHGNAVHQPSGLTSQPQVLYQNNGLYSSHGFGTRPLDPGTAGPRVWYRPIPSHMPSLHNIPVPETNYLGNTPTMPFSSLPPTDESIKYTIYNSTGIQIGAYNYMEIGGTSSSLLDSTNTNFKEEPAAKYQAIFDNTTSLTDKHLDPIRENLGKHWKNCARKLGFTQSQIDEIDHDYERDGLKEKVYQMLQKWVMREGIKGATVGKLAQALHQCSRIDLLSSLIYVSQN
UniProt Q01974, whole entry: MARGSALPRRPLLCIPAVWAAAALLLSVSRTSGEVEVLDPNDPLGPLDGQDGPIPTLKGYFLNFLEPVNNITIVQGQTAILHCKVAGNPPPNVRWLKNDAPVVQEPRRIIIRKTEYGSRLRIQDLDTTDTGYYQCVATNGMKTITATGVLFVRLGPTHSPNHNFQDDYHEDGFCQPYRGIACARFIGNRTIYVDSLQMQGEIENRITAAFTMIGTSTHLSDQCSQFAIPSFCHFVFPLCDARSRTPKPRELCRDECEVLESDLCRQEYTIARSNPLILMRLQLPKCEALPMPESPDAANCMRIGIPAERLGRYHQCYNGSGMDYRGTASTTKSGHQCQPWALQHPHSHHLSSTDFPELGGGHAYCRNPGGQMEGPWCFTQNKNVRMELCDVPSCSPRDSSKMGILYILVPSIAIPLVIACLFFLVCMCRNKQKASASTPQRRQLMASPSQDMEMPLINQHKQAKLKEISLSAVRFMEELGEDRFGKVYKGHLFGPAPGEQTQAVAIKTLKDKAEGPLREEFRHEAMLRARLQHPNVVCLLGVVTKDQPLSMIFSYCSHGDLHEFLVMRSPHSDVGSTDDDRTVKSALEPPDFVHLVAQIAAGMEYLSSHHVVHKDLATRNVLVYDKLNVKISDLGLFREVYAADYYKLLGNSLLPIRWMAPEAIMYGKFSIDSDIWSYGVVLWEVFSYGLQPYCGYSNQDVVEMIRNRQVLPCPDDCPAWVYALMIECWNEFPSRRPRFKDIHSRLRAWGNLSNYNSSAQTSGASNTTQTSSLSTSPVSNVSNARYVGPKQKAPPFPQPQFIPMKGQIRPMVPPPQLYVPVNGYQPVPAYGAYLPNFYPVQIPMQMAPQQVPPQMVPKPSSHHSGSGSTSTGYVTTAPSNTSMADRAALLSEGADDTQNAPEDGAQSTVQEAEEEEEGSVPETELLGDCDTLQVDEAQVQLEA
UniProt Q15418, whole entry: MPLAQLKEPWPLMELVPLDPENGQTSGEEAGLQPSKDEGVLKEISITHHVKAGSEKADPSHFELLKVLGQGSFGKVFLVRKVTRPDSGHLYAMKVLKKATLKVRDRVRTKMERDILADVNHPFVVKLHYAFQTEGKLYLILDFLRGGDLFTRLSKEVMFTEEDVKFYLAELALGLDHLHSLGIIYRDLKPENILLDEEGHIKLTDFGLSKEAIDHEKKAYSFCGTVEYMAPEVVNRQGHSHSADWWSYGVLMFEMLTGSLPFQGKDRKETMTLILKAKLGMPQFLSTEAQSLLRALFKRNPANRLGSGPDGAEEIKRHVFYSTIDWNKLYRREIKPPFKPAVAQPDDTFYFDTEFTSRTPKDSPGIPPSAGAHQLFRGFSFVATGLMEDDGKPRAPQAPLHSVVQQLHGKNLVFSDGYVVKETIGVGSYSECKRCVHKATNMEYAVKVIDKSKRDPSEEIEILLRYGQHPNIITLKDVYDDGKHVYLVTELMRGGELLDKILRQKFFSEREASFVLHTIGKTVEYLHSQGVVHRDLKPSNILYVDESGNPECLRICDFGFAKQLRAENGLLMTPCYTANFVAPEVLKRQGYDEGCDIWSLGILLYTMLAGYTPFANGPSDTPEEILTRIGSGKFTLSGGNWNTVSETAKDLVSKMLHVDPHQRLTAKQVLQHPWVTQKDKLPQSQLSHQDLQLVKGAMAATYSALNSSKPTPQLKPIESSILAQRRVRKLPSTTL
UniProt Q9NYA1, whole entry: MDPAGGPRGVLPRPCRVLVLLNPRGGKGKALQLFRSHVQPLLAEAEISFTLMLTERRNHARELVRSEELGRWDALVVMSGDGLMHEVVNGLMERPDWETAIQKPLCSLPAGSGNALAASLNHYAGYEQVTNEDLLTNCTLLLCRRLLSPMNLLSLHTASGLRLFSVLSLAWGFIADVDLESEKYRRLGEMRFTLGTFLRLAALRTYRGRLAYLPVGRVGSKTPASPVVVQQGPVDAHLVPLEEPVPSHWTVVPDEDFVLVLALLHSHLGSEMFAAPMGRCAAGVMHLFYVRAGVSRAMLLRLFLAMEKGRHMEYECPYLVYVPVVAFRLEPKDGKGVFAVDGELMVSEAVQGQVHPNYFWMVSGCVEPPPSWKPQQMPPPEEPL
UniProt Q9Y6E0: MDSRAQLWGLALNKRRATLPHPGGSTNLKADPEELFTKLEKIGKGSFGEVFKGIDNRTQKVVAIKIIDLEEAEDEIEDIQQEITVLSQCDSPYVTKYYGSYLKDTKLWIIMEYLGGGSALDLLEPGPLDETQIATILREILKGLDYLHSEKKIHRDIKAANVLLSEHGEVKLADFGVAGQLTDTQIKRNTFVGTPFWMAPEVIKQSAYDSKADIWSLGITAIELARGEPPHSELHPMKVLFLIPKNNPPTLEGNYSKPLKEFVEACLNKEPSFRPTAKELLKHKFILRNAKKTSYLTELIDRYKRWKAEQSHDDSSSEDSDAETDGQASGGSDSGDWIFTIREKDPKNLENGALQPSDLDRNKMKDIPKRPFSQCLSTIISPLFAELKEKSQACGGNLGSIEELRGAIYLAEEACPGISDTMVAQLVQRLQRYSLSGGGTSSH

What was measured:
Assay in all cases: kinase-Nluc reporter destabilization hit call (1 = scored as downregulated) (binary); higher = compound decreases kinase abundance
Settings in all cases: K562; 2-18 h
RET = RET (UniProt P07949)
[1] = target: RET_M918T (clone: RET_mut) (UniProt P07949)
RIOK1 = RIOK1 (UniProt Q9BRS2)
RIPK1 = RIPK1 (UniProt Q13546)
RIPK2 = RIPK2 (UniProt O43353)
ROR2 = ROR2 (UniProt Q01974)
RPS6KA1 = RPS6KA1 (UniProt Q15418)
SPHK1 = SPHK1 (UniProt Q9NYA1)
SRC = SRC (UniProt P12931)
STK24 = STK24 (UniProt Q9Y6E0)

Measured: kinase-Nluc reporter destabilization hit call

O=C(/C=C/c1ccc(O)c(O)c1)c1ccc(O[C@@H]2O[C@H](CO)[C@@H](O)[C@H](O)[C@H]2O)c(O)c1O [Marein] (10 µM)
inactive: RET 0 | [1] 0 | RIOK1 = 0 | RIPK1 = 0 | RIPK2 = 0 | ROR2 = 0 | RPS6KA1 = 0 | SPHK1 = 0 | SRC 0 | STK24 = 0

Cc1ccc(Nc2cc(-c3cccc(N4C(=O)c5ccccc5C4=O)c3)ncn2)cc1NS(C)(=O)=O (10 µM)
inactive: RET 0 | [1] 0 | RIOK1 = 0 | RIPK1 = 0 | RIPK2 = 0 | ROR2 = 0 | RPS6KA1 = 0 | SPHK1 = 0 | SRC 0 | STK24 = 0

Cc1cc([C@H](C)Nc2ccccc2)c2oc(N3CCOCC3)cc(=O)c2c1 (10 µM)
inactive: RET 0 | [1] 0 | RIOK1 = 0 | RIPK1 = 0 | RIPK2 = 0 | ROR2 = 0 | RPS6KA1 = 0 | SPHK1 = 0 | SRC 0 | STK24 = 0

COc1cc([N+](=O)[O-])ccc1S(=O)(=O)N1C[C@@H](CN2CCN(c3ccccn3)CC2)[C@H](c2cccc(F)c2)C1 (relative stereo) (10 µM)
inactive: RET 0 | [1] 0 | RIOK1 = 0 | RIPK1 = 0 | RIPK2 = 0 | ROR2 = 0 | RPS6KA1 = 0 | SPHK1 = 0 | SRC 0 | STK24 = 0

NCc1ccc(Nc2ncc(F)c(Nc3ccccc3)n2)cc1 (10 µM)
inactive: RET 0 | [1] 0 | RIOK1 = 0 | RIPK1 = 0 | RIPK2 = 0 | ROR2 = 0 | RPS6KA1 = 0 | SPHK1 = 0 | SRC 0 | STK24 = 0

C=CC(=O)Nc1cc2c(Nc3ccc(OCc4ccccn4)c(Cl)c3)ncnc2cc1OCCN1CCOCC1 (10 µM)
inactive: RET 0 | [1] 0 | RIOK1 = 0 | RIPK1 = 0 | RIPK2 = 0 | ROR2 = 0 | RPS6KA1 = 0 | SPHK1 = 0 | SRC 0 | STK24 = 0

N#CC(c1ccnc(NCCc2cccnc2)n1)c1nc2ccccc2s1 (stereo not given) (10 µM)
inactive: RET 0 | [1] 0 | RIOK1 = 0 | RIPK1 = 0 | RIPK2 = 0 | ROR2 = 0 | RPS6KA1 = 0 | SPHK1 = 0 | SRC 0 | STK24 = 0

Fc1ccc(-c2nc(-c3c(F)cccc3F)[nH]c2-c2ccncc2)cc1 (10 µM)
inactive: RET 0 | [1] 0 | RIOK1 = 0 | RIPK1 = 0 | RIPK2 = 0 | ROR2 = 0 | RPS6KA1 = 0 | SPHK1 = 0 | SRC 0 | STK24 = 0

CN(CC(=O)N(Cc1ccc(C2CCCCC2)cc1)c1ccc(C(=O)O)cc1)S(=O)(=O)c1c(F)c(F)c(F)c(F)c1F (2.5 µM)
inactive: RET 0 | [1] 0 | RIOK1 = 0 | RIPK1 = 0 | RIPK2 = 0 | ROR2 = 0 | RPS6KA1 = 0 | SPHK1 = 0 | SRC 0 | STK24 = 0

COc1ccc(-c2ccc3c(N4CCOC[C@@H]4C)nc(N4CCOC[C@@H]4C)nc3n2)cc1CO (2.5 µM)
inactive: RET 0 | [1] 0 | RIOK1 = 0 | RIPK1 = 0 | RIPK2 = 0 | ROR2 = 0 | RPS6KA1 = 0 | SPHK1 = 0 | SRC 0 | STK24 = 0

Cn1cc(-c2ccc(CNc3cc(-c4cnc5cc(OCCCN6CCCC6)ccn45)ncn3)cc2)cn1 (10 µM)
inactive: RET 0 | [1] 0 | RIOK1 = 0 | RIPK1 = 0 | RIPK2 = 0 | ROR2 = 0 | RPS6KA1 = 0 | SPHK1 = 0 | SRC 0 | STK24 = 0

O=C(CNC(=O)c1ccc(-c2ccccc2)cc1)NC1CCCc2ccccc21 (stereo not given) [TAO Kinase inhibitor 1] (10 µM)
inactive: RET 0 | [1] 0 | RIOK1 = 0 | RIPK1 = 0 | RIPK2 = 0 | ROR2 = 0 | RPS6KA1 = 0 | SPHK1 = 0 | SRC 0 | STK24 = 0

Nc1ncnc2c1ncn2[C@@H]1O[C@H](CO)C[C@H]1O [Cordycepin] (10 µM)
inactive: RET 0 | [1] 0 | RIOK1 = 0 | RIPK1 = 0 | RIPK2 = 0 | ROR2 = 0 | RPS6KA1 = 0 | SPHK1 = 0 | SRC 0 | STK24 = 0

Cc1cc(Nc2cc(Cl)nc(Oc3ccc([N+](=O)[O-])cc3)n2)n[nH]1 [Autophinib] (2.5 µM)
inactive: RET 0 | [1] 0 | RIOK1 = 0 | RIPK1 = 0 | RIPK2 = 0 | ROR2 = 0 | RPS6KA1 = 0 | SPHK1 = 0 | SRC 0 | STK24 = 0

O=C(O)c1cc(O)ccc1O [2,5-Dihydroxybenzoic acid] (10 µM)
inactive: RET 0 | [1] 0 | RIOK1 = 0 | RIPK1 = 0 | RIPK2 = 0 | ROR2 = 0 | RPS6KA1 = 0 | SPHK1 = 0 | SRC 0 | STK24 = 0

CC1CCc2nc(N)c(C#N)c(-c3cccnc3)c2C1 (stereo not given) (10 µM)
inactive: RET 0 | [1] 0 | RIOK1 = 0 | RIPK1 = 0 | RIPK2 = 0 | ROR2 = 0 | RPS6KA1 = 0 | SPHK1 = 0 | SRC 0 | STK24 = 0

COc1cc(N2CCC(N3CCN(C)CC3)CC2)ccc1Nc1ncc(Cl)c(Nc2ccccc2P(C)(C)=O)n1 [Brigatinib] (2 µM)
inactive: RET 0 | [1] 0 | RIOK1 = 0 | RIPK1 = 0 | RIPK2 = 0 | ROR2 = 0 | RPS6KA1 = 0 | SPHK1 = 0 | SRC 0 | STK24 = 0

CC[C@@]1(c2ccccc2)C2=C(CC(C)(C)CC2=O)Nc2[nH]ncc21 (10 µM)
inactive: RET 0 | [1] 0 | RIOK1 = 0 | RIPK1 = 0 | RIPK2 = 0 | ROR2 = 0 | RPS6KA1 = 0 | SPHK1 = 0 | SRC 0 | STK24 = 0
